Laboratory results from PMC11096365, “Cryo-EM structures of the human Elongator complex at work” (Nature Communications, 2024).
For some of these results: The comparison behind a weaker result is the experiment's own reference, which may not be listed here. For some of these results: The exact form of at least one protein or probe is not confirmed. For some of these results: At least one verdict rests on a figure or table, not on a statement of the authors.

Key:
Assay in all cases: MST
[1] = system: ELP1 + ELP2 + ELP3 wild type; settings: MST: 20 mM HEPES pH 7.5, 100 mM NaCl, 5 mM DTT, 0.05% Tween 20, incubated at 4 C 30 min, measured at 25 C, Cy5-tRNA 14 or 30 nM, recombinant protein, protein details: C-terminal Twin-Strep-Tag; for binding result: label: internal Cy5 (5% Cy5-CTP)
ELP1 + ELP2 + ELP3 R364A = settings: 2-4 fold lower affinity than WT (range for three mutants); MST: 20 mM HEPES pH 7.5, 100 mM NaCl, 5 mM DTT, 0.05% Tween 20; incubated at 4 C 30 min, measured at 25 C; Cy5-tRNA 14 or 30 nM; recombinant protein; protein details: C-terminal Twin-Strep-Tag; label: internal Cy5 (5% Cy5-CTP) for MST
[2] = system: ELP1 + ELP2 + ELP3 Δ1-85 del1-85; settings: 2-4 fold lower affinity than WT (range for three mutants); MST: 20 mM HEPES pH 7.5, 100 mM NaCl, 5 mM DTT, 0.05% Tween 20; incubated at 4 C 30 min, measured at 25 C; Cy5-tRNA 14 or 30 nM; recombinant protein; protein details: C-terminal Twin-Strep-Tag; label: internal Cy5 (5% Cy5-CTP) for MST
ELP1 + ELP2 + ELP3 R361A = settings: 2-4 fold lower affinity than WT (range for three mutants); MST: 20 mM HEPES pH 7.5, 100 mM NaCl, 5 mM DTT, 0.05% Tween 20; incubated at 4 C 30 min, measured at 25 C; Cy5-tRNA 14 or 30 nM; recombinant protein; protein details: C-terminal Twin-Strep-Tag; label: internal Cy5 (5% Cy5-CTP) for MST

Sequence	binding result [1]	binding result (ELP1 + ELP2 + ELP3 R364A)	binding result [2]	Kd ([1]; 500 uM desulpho-CoA, label: internal Cy5 (5% Cy5-CTP) for MST)	binding result (ELP1 + ELP2 + ELP3 R361A)
GCCCGGAUAGCUCAGUCGGUAGAGCAUCAGACUUUUAAUCUGAGGGUCCAGGGUUCAAGUCCCUGUUCGGGCGCCA [tRNALysUUU]	binds	–	–	–	–
GGCCCCAUGGUGUAAUGGUUAGCACUCUGGACUUUGAAUCCAGCGAUCCGAGUUCAAAUCUCGGUGGGACCUCCA [tRNAGlnUUG]	–	binds more weakly	binds more weakly	183 nM	binds more weakly
GUCUCUGUGGCGCAAUGGACGAGCGCGCUGGACUUCUAAUCCAGAGGUUCCGGGUUCGAGUCCCGGCAGAGAUGCCA [tRNAArgUCU]	binds	–	–	–	–
UCCCUGGUGGUCUAGUGGCUAGGAUUCGGCGCUUUCACCGCCGCGGCCCGGGUUCGAUUCCCGGUCAGGGAACCA [tRNAGluUUC]	binds	–	–	–	–
